Assay in all cases: affinity purification with mass spectrometry; 3xFLAG-tagged bait from transgenic plants held on anti-FLAG M2 magnetic beads; lysate of 8 to 10 g of inflorescences; IP buffer 50 mM tris-HCl pH 8.0, 150 mM NaCl, 5 mM EDTA, 20% glycerol, 0.1% Tergitol, 0.5 mM dithiothreitol; 2 hours at 4°C; eluted with 3X-FLAG peptides; LC-MS/MS; backgrounds: wild-type Col-0, and sln, mbd5 mbd6 and acd21 mutants where binding was kept

Amino acid sequences for entries named in this document (tags omitted). A change or cut given only in a name is not applied to a line headed by its entry.
UniProt Q9S842: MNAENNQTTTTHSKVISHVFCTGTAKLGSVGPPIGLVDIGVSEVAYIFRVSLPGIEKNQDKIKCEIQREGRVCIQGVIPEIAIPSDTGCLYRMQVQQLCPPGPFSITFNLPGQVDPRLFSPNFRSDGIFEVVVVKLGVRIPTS

Assay [1] concerns the target T1, methyl-CpG binding domain protein 6 (MBD6) (Arabidopsis thaliana) (UniProt Q9LTJ1).
T1 sequence: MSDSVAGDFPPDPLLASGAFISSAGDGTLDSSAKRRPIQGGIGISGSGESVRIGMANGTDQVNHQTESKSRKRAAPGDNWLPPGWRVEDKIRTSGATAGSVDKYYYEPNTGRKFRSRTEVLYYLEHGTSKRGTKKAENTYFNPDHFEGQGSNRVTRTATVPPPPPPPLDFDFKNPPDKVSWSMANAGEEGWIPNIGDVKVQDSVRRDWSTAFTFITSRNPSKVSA

Assay [2] has as its target T2, methyl-CpG binding domain protein 5 (MBD5) (Arabidopsis thaliana) (UniProt Q9SNC0).
T2 sequence: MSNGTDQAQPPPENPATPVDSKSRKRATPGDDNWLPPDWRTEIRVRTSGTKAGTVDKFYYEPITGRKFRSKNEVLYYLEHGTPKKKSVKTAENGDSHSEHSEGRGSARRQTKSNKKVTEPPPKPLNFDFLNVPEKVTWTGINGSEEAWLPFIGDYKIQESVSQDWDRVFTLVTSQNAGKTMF

For assay [3], the target named is ACD15.5/RDS2 (ACD15) (Arabidopsis thaliana) (UniProt Q9S842).

These results are taken from article PMC10651127.

These are yes or no findings as the source states them, for the method shown. In cells and extracts the contact can be indirect. A yes stands for co-enrichment or nearness to the bait. Other partners may have been found.

Consider “ACD15.5/RDS2 (ACD15) (from UniProt Q9S842)”, for which the binding result in assay [1] and in assay [2] was “binds” in each case.

B1: methyl-CpG binding domain protein 6 (MBD6) (protein, UniProt Q9LTJ1 1-225)
chain: T1 sequence
On to B1, for which the binding result in assay [3] is given as “binds”.

B2: methyl-CpG binding domain protein 5 (MBD5) (protein, UniProt Q9SNC0 1-182)
chain: T2 sequence
For B2, the binding result in assay [3] was “binds”.
